Experimental data reported in patent US20150273088A1 (Board of Regents, The University of Texas System, priority 2014, published 2015).
At least one structure is not confirmed: it was looked up by name or label, or the drawing left a doubt.

System: HT1080 cells (endogenous IDH1 R132C)
Experiment: 2HG fluorimetric assay / high-throughput screen, secreted 2HG in media
Assay type: cell-based, human
Conditions: 48 hours, fluorescent assay, normalized to viability
Experimental: 2HG fluorimetric assay. N-terminal 6×-His tagged PHGDH was expressed and purified from chemically competent BL-21 E. coli using Ni-NTA agarose (Qiagen) (Grant et al., 1999). Purified protein was then dialyzed in 40 mM KPO4 buffer at 4° C. overnight. Conditioned culture media (DMEM or aMEM) containing 2HG was neutralized with 60 mM HCL for 10 minutes followed by 60 mM Tris base. A 20 μL aliquot of neutralized conditioned media was then mixed with 90 μL of optimized assay reaction mix consisting of 5 μg purified PHGDH enzyme, 12.5 μM resazurin (Sigma-Aldrich), 0.125 U/ml diaphorase (Sigma-Aldrich), 1 mM NAD (Sigma-Aldrich), 40 mM Tris-HCl pH 8.8, and incubated for 90 minutes in a 96-well plate. Resorufin fluorescence was then quantified using a FLUOstar™ OPTIMA fluorescence plate reader (BMG Labtech) with excitation and emission peaks of 544 nm and 590 nm, respectively. Measurements were background subtracted (neutralized fresh media) and normalized either to total protein or viability as measured by Alamar Blue (Naik et al., 2009).
High-throughput screening. […] After 48 hours of incubation, media was removed and 2HG in the media was measured using the fluorimetric assay. […] Cell viability was determined using Alamar Blue, as described previously (Naik et al., 2009). […]

CN1CC(=O)N2[C@H](c3ccc4c(c3)OCO4)c3[nH]c4ccccc4c3C[C@@H]2C1=O [Tadalafil]
Secreted (extracellular) 2HG: no change
